The test system of the data set is JURKAT cells. In words: Subcellular distribution of [3H]FK-506 in JURKAT cells. Format: cell-based, human. The note with it: 6 nM, 30 min.

This is an account of results in patent US5196352A, “New FK-506 cytosolic binding protein” (Merck & Co., Inc., priority 1991, dated 1993).

For `[3H]CC([3H])C[C@@H]1/C=C(\C)C[C@H](C)C[C@H](OC)[C@H]2O[C@@](O)(C(=O)C(=O)N3CCCC[C@H]3C(=O)O[C@H](/C(C)=C/[C@@H]3CC[C@@H](O)[C@H](OC)C3)[C@H](C)[C@@H](O)CC1=O)[C@H](C)C[C@@H]2OC` (some centres unmarked) [[^3 H]FK-506, [^3 H]-dihydro FK-506], the “[^3 H]FK-506 Bound (cpm)” value runs as follows: (cytosol) 207,879 cpm; (nuclear pellet) 3,581 cpm; (plasma membrane) 1,824 cpm. Moreover, the “% of Total” value was determined as 1.7% (nuclear pellet) and 0.9% (plasma membrane).
